Counter-ions that a name gives are not always drawn. Some compounds share one wording; it may come from a single statement.
Key:
p(dAdT)2 (AT-DNA) = test: Fluorimetric titration, Scatchard processing; format: binding; settings: for I/I0 (fluorescence intensity of complex / starting intensity of compound): p(dAdT)2, pH 7.0, calculated by Scatchard equation; for ratio n (bound compound/polynucleotide phosphate): p(dAdT)2, pH 7.0, sodium cacodylate buffer
Procedure: (§1) Compound solutions were used for measurements in aqueous buffer (pH = 7, sodium cacodylate buffer, I = 0.05 mol dm^−3). Polynucleotides were purchased as noted: poly A-poly U, poly (dAdT)2 and calf thymus (ct)DNA (Sigma-Aldrich). Polynucleotides were dissolved in Na-cacodylate buffer, I = 0.05 mol dm^−3, pH = 7. The calf thymus ctDNA was additionally sonicated and filtered through a […]. Polynucleotide concentration was determined spectroscopically as the concentration of phosphates.
(§2) Fluorescence spectra were recorded on a Varian Cary Eclipse spectrophotometer at 25 °C using appropriate 1cm path quartz cuvettes. Fluorometric experiments were performed at pH = 7 (I = 0.05 mol dm^−3, sodium cacodylate buffer) by adding portions of polynucleotide solution into the solution of the studied compound. In fluorometric experiments, an excitation wavelength of λexc ≥ 300 nm was used to avoid the inner filter effect caused due to increasing absorbance of the polynucleotide. Emissions were determined in the range λem = 300–600 nm. Values for Ks obtained by processing titration data using the Scatchard equation [40], in most titrations have satisfactory correlation coefficients (≥0.98).

AT-DNA (poly (dAdT)2) = test: CD titration and thermal melting, binding mode; settings: CD titrations and thermal melting, pH 7
ctDNA (calf thymus DNA) = test: Fluorimetric titration, Scatchard processing; format: binding; settings: for I/I0 (fluorescence intensity of complex / starting intensity of compound): pH 7.0, calculated by Scatchard equation; for ratio n (bound compound/polynucleotide phosphate): pH 7.0, sodium cacodylate buffer
Procedure: as §1, §2

poly A-poly U (AU-RNA) = test: Fluorimetric titration, Scatchard processing; format: binding; settings: for I/I0 (fluorescence intensity of complex / starting intensity of compound): pH 7.0, calculated by Scatchard equation; for ratio n (bound compound/polynucleotide phosphate): pH 7.0, sodium cacodylate buffer
Procedure: as §1, §2

AU-RNA (poly A-poly U) = test: CD titration and thermal melting, binding mode; settings: CD titrations and thermal melting, pH 7
[1] = test system: SW620 (colorectal adenocarcinoma, metastatic); test: MTT proliferation assay, 72 h; format: cell-based, human
Procedure: The cell lines HeLa (cervical carcinoma), SW620 (colorectal adenocarcinoma, metastatic), A549 (lung adenocarcinoma), HepG2 (hepatocellular carcinoma) and HFF (human foreskin fibroblasts) were cultured as monolayers and maintained in Dulbecco’s modified Eagle medium (DMEM), supplemented with 10% fetal bovine serum (FBS), 2mM L-glutamine, 100 U/mL penicillin and 100 μg/mL streptomycin in a humidified atmosphere with 5% CO2 at 37 °C.
Cells were seeded onto 96-well microtiter plates at a seeding density of 3000 cells/well for carcinoma cell lines, and 5000 cells/well for normal human fibroblasts. The next day, cells were treated with test agents at five different concentrations (0.01–100 µM) and further incubated for 72 h. […] Following 72 h incubation, the MTT assay was performed and measured absorbances were transformed into percentage of cell growth as described previously. Results were obtained from three independent experiments.

SMILES	I/I0 (fluorescence intensity of complex / starting intensity of compound) (p(dAdT)2 (AT-DNA))	ratio n (bound compound/polynucleotide phosphate) (p(dAdT)2 (AT-DNA))	binding mode to AT-DNA (AT-DNA (poly (dAdT)2))	I/I0 (fluorescence intensity of complex / starting intensity of compound) (ctDNA (calf thymus DNA))	ratio n (bound compound/polynucleotide phosphate) (ctDNA (calf thymus DNA))	I/I0 (fluorescence intensity of complex / starting intensity of compound) (poly A-poly U (AU-RNA))	ratio n (bound compound/polynucleotide phosphate) (poly A-poly U (AU-RNA))	binding mode to AU-RNA (AU-RNA (poly A-poly U))	fold more active compared to monoamidoxime 19 ([1]; SW620 cells)	fold stronger inhibitory effect compared to structural analogue 8 ([1]; printed 'to tumor cells', ratio matches SW620 IC50 values) [fold]
Cl.c1cnc2c(NCc3cn(-c4ccc(C5=NCCN5)cc4)nn3)cccc2c1 [Compound 8, 8-(((1-(4-(4,5-Dihydro-1H-imidazol-2-yl)phenyl)-1H-1,2,3-triazol-4-yl)methyl)amino)-quinoline hydrochloride]	2.3	0.5	–	–	–	–	–	–	–	–
Cl.Cl.c1cc(C2=NCCN2)ccc1OCc1cn(-c2ccc(C3=NCCN3)cc2)nn1 [Compound 5, 1-(4-(4,5-Dihydro-1H-imidazol-2-yl)-phenyl]-4-((4-(4,5-dihydro-1H-imidazol-2-yl)phenyloxy)methyl]-1H-1,2,3-triazole dihydrochloride]	2.2	<0.1	bind inside the minor groove	2.0	0.1	2.0	0.7	intercalate	–	–
Cl.O=c1cc(OCc2cn(-c3ccc(C4=NCCN4)cc3)nn2)c2ccccc2o1 [Compound 10, 4-((1-(4-(4,5-Dihydro-1H-imidazol-2-yl)phenyl)-1H-1,2,3-triazol-4-yl)methyloxy)-coumarin hydrochloride]	1.3	0.8	bind inside the minor groove	–	–	–	–	intercalate	–	–
N/C(=N\O)c1ccc(-n2cc(COc3cccc4ccc(/C(N)=N/O)nc34)nn2)cc1 [Compound 20, (Z)-N′-Hydroxy-8-((1-(4-((Z)-N′-hydroxycarbamimidoyl)phenyl)-1H-1,2,3-triazol-4-yl)methoxy)quinoline-2-carboximidamide]	–	0.1	–	–	0.2	–	0.1	–	around 9 fold	–
Cl.O=c1ccc2ccc(OCc3cn(-c4ccc(C5=NCCN5)cc4)nn3)cc2o1 [Compound 11, 7-((1-(4-(4,5-Dihydro-1H-imidazol-2-yl)phenyl)-1H-1,2,3-triazol-4-yl)methyloxy)-coumarin hydrochloride]	0.6	0.2	mixed binding mode, most probably minor groove binding accompanied with aggregate binding along the DNA backbone	0.5	0.2	0.7	0.2	intercalative binding mode	–	–
Cl.c1cnc2c(OCc3cn(-c4ccc(C5=NCCN5)cc4)nn3)cccc2c1 [Compound 9, 8-((1-(4-(4,5-Dihydro-1H-imidazol-2-yl)phenyl)-1H-1,2,3-triazol-4-yl)methyloxy)-quinoline hydrochloride]	0.2	0.1	mixed binding mode, most probably minor groove binding accompanied with aggregate binding along the DNA backbone	0.5	0.3	<0.1	<0.1	–	–	13
c1cc(C2=NCCN2)c2ccn(Cc3cn(-c4ccc(C5=NCCN5)cc4)nn3)c2c1 [Compound 6, 1-((1-(4-(Dihydro-1H-imidazol-2-yl)phenyl)-1H-1,2,3-triazol-4-yl)methyl)-4-(dihydro-1H-imidazol-2-yl)-1H-indole dihydrochloride]	0.9	0.1	mixed binding mode, most probably minor groove binding accompanied with aggregate binding along the DNA backbone	0.8	0.7	0.1	0.6	–	–	–
